Publication PMC8692147
These are yes or no findings as the source states them, for the method shown. In cells and extracts the contact can be indirect. A result given as binding can be weak or reduced; the word gives no strength. Where a sequence is shown, tags or fusion partners need not be part of it.

T1: CRYAB-mCherry (αB-crystallin fused to mCherry) (UniProt P02511)
T1 sequence: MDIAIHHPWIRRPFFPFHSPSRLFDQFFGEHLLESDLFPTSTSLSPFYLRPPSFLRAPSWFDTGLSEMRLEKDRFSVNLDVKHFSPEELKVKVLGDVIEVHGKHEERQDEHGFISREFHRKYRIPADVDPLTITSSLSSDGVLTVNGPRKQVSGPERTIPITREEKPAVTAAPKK


Key:
[1] = target: T1, CRYAB-mCherry (αB-crystallin fused to mCherry); test: FRET or BRET; sensitized emission (FRET-SE) in HUVECs co-transfected with an eGFP fusion (donor) and an mCherry fusion (acceptor); Leica SP8 confocal microscope; calibrated with negative control, donor only and acceptor only groups; compared with GFP-NC & mCherry-NC
[2] = target: VEGFA-mCherry (VEGFA165 fused to mCherry); test: as above

| Molecule | binding [1] | binding [2] |
| --- | --- | --- |
| VEGFA-eGFP (VEGFA165 fused to eGFP) | binds |  |
| LBH-eGFP (limb-bud and heart protein fused to eGFP) (protein, UniProt Q53QV2 1-105) MSIYFPIHCPDYLRSAKMTEVMMNTQPMEEIGLSPRKDGLSYQIFPDPSDFDRCCKLKDRLPSIVVEPTEGEVESGELRWPPEEFLVQEDEQDNCEETAKENKEQ |  | binds |
